According to the supplement of paper PMC4299490:
± gives the standard deviation of the averaged measurements. This is a noisy data set.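 Three doses of each ligand were tested, with effects compared to wells receiving basal cytokines alone. SR1 was the positive control for HSC expansion, and TGFB1 (10 ng/ml) the negative control.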

Experiments:
[1] = test system: human umbilical cord blood Lin-RholowCD34+CD38-CD45RA-CD49f+ HSC-enriched cells; test: number of CD34- mature cells per well on day 7 (from 40 seeded cells); higher = more mature cell output; details: culture time: 7 days, basal cytokines: 100 ng/ml SCF + 50 ng/ml THPO + 100 ng/ml FLT3LG
Protocol: (§1)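 Forty human umbilical cord blood Lin-RholowCD34+CD38-CD45RA-CD49f+ HSC-enriched cells were cultured per well in serum-free medium with basal cytokines (100 ng/ml SCF, 50 ng/ml THPO, 100 ng/ml FLT3LG) plus one test ligand (recombinant protein or small-molecule inhibitor) at the stated concentration. On day 7, flow cytometry counted CD34+CD133+CD90+ HSC-enriched cells and CD34- mature cells; progenitors (CD34+ cells that are CD133- or CD90-) were calculated as total - HSC-enriched - mature. Values are absolute cell numbers per well, corrected for the 30 µl dead volume and averaged over experiments; they are not normalised to the basal-cytokine control, and they vary strongly between experiments. Concentrations are in ng/ml, except SR1, which is 0.75 µM.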

[2] = test system: human umbilical cord blood Lin-RholowCD34+CD38-CD45RA-CD49f+ HSC-enriched cells; test: number of CD34+CD133+CD90+ HSC-enriched cells per well on day 7 (from 40 seeded cells); higher = more HSC-enriched cell output; details: culture time: 7 days, basal cytokines: 100 ng/ml SCF + 50 ng/ml THPO + 100 ng/ml FLT3LG
Protocol: as §1

[3] = ligand concentration (ng/ml; SR1 in µM as written): 1
[4] = ligand concentration (ng/ml; SR1 in µM as written): 50
[5] = ligand concentration (ng/ml; SR1 in µM as written): 150
[6] = ligand concentration (ng/ml; SR1 in µM as written): 100
[7] = ligand concentration (ng/ml; SR1 in µM as written): 200
[8] = ligand concentration (ng/ml; SR1 in µM as written): 10
[9] = ligand concentration (ng/ml; SR1 in µM as written): 25

| Substance | number [1, 3] | number [1, 4] | number [1, 5] | number [2, 3] | number [2, 4] | number [2, 5] | number [1, 6] | number [2, 6] | number [1, 7] | number [2, 7] | number [1, 8] | number [2, 8] | number [1, 9] | number [2, 9] |
| --- | --- | --- | --- | --- | --- | --- | --- | --- | --- | --- | --- | --- | --- | --- |
| MTDRQTDTAPSPSYHLLPGRRRTVDAAASRGQGPEPAPGGGVEGVGARGVALKLFVQLLGCSRFGGAVVRAGEAEPSGAARSASSGREEPQPEEGEEEEEKEEERGPQWRLGARKPGSWTGEAAVCADSAPAARAPQALARASGRGGRVARRGAEESGPPHSPSRRGSASRAGPGRASETMNFLLSWVHWSLALLLYLHHAKWSQAAPMAEGGGQNHHEVVKFMDVYQRSYCHPIETLVDIFQEYPDEIEYIFKPSCVPLMRCGGCCNDEGLECVPTEESNITMQIMRIKPHQGQHIGEMSFLQHNKCECRPKKDRARQEKKSVRGKGKGQKRKRKKSRYKSWSVPCGPCSERRKHLFVQDPQTCKCSCKNTDSRCKARQLELNERTCRCDKPRR | 314 ± 230 | 387 ± 360 | 294 ± 200 | 93 ± 57 | 106 ± 56 | 95 ± 73 |  |  |  |  |  |  |  |  |
| MTILFLTMVISYFGCMKAAPMKEANIRGQGGLAYPGVRTHGTLESVNGPKAGSRGLTSLADTFEHVIEELLDEDQKVRPNEENNKDADLYTSRVMLSSQVPLEPPLLFLLEEYKNYLDAANMSMRVRRHSDPARRGELSVCDSISEWVTAADKKTAVDMSGGTVTVLEKVPVSKGQLKQYFYETKCNPMGYTKEGCRGIDKRHWNSQCRTTQSYVRALTMDSKKRIGWRFIRIDTSCVCTLTIKRGR | 242 ± 160 | 442 ± 370 |  | 100 ± 37 | 128 ± 31 |  | 425 ± 300 | 112 ± 44 |  |  |  |  |  |  |
| MTPPERLFLPRVCGTTLHLLLLGLLLVLLPGAQGLPGVGLTPSAAQTARQHPKMHLAHSTLKPAAHLIGDPSKQNSLLWRANTDRAFLQDGFSLSNNSLLVPTSGIYFVYSQVVFSGKAYSPKATSSPLYLAHEVQLFSSQYPFHVPLLSSQKMVYPGLQEPWLHSMYHGAAFQLTQGDQLSTHTDGIPHLVLSPSTVFFGAFAL | 318 ± 260 | 303 ± 130 |  | 63.3 ± 44 | 14.6 ± 8.5 |  |  |  | 326 ± 120 | 25.3 ± 25 |  |  |  |  |
| MTVFLSFAFLAAILTHIGCSNQRRSPENSGRRYNRIQHGQCAYTFILPEHDGNCRESTTDQYNTNALQRDAPHVEPDFSSQKLQHLEHVMENYTQWLQKLENYIVENMKSEMAQIQQNAVQNHTATMLEIGTSLLSQTAEQTRKLTDVETQVLNQTSRLEIQLLENSLSTYKLEKQLLQQTNEILKIHEKNSLLEHKILEMEGKHKEELDTLKEEKENLQGLVTRQTYIIQELEKQLNRATTNNSVLQKQQLELMDTVHNLVNLCTKEGVLLKGGKREEEKPFRDCADVYQAGFNKSGIYTIYINNMPEPKKVFCNMDVNGGGWTVIQHREDGSLDFQRGWKEYKMGFGNPSGEYWLGNEFIFAITSQRQYMLRIELMDWEGNRAYSQYDRFHIGNEKQNYRLYLKGHTGTAGKQSSLILHGADFSTKDADNDNCMCKCALMLTGGWWFDACGPSNLNGMFYTAGQNHGKLNGIKWHYFKGPSYSLRSTTMMIRPLDF | 448 ± 320 |  |  | 133 ± 60 |  |  | 560 ± 550 | 135 ± 29 |  |  | 482 ± 360 | 135 ± 22 |  |  |
| MVAGTRCLLALLLPQVLLGGAAGLVPELGRRKFAAASSGRPSSQPSDEVLSEFELRLLSMFGLKQRPTPSRDAVVPPYMLDLYRRHSGQPGSPAPDHRLERAASRANTVRSFHHEESLEELPETSGKTTRRFFFNLSSIPTEEFITSAELQVFREQMQDALGNNSSFHHRINIYEIIKPATANSKFPVTRLLDTRLVNQNASRWESFDVTPAVMRWTAQGHANHGFVVEVAHLEEKQGVSKRHVRISRSLHQDEHSWSQIRPLLVTFGHDGKGHPLHKREKRQAKHKQRKRLKSSCKRHPLYVDFSDVGWNDWIVAPPGYHAFYCHGECPFPLADHLNSTNHAIVQTLVNSVNSKIPKACCVPTELSAISMLYLDENEKVVLKNYQDMVVEGCGCR | 348 ± 260 |  |  | 107 ± 57 |  |  | 426 ± 440 | 92.2 ± 49 |  |  |  |  | 452 ± 390 | 90 ± 48 |
| MVLAAPLLLGFLLLALELRPRGEAAEGPAAAAAAAAAAAAAGVGGERSSRPAPSVAPEPDGCPVCVWRQHSRELRLESIKSQILSKLRLKEAPNISREVVKQLLPKAPPLQQILDLHDFQGDALQPEDFLEEDEYHATTETVISMAQETDPAVQTDGSPLCCHFHFSPKVMFTKVLKAQLWVYLRPVPRPATVYLQILRLKPLTGEGTAGGGGGGRRHIRIRSLKIELHSRSGHWQSIDFKQVLHSWFRQPQSNWGIEINAFDPSGTDLAVTSLGPGAEGLHPFMELRVLENTKRSRRNLGLDCDEHSSESRCCRYPLTVDFEAFGWDWIIAPKRYKANYCSGQCEYMFMQKYPHTHLVQQANPRGSAGPCCTPTKMSPINMLYFNDKQQIIYGKIPGMVVDRCGCS | 326 ± 240 |  |  | 69.1 ± 50 |  |  | 142 ± 120 | 66.7 ± 41 |  |  |  |  | 174 ± 110 | 69.8 ± 49 |
| MWQIVFFTLSCDLVLAAAYNNFRKSMDSIGKKQYQVQHGSCSYTFLLPEMDNCRSSSSPYVSNAVQRDAPLEYDDSVQRLQVLENIMENNTQWLMKLENYIQDNMKKEMVEIQQNAVQNQTAVMIEIGTNLLNQTAEQTRKLTDVEAQVLNQTTRLELQLLEHSLSTNKLEKQILDQTSEINKLQDKNSFLEKKVLAMEDKHIIQLQSIKEEKDQLQVLVSKQNSIIEELEKKIVTATVNNSVLQKQQHDLMETVNNLLTMMSTSNSAKDPTVAKEEQISFRDCAEVFKSGHTTNGIYTLTFPNSTEEIKAYCDMEAGGGGWTIIQRREDGSVDFQRTWKEYKVGFGNPSGEYWLGNEFVSQLTNQQRYVLKIHLKDWEGNEAYSLYEHFYLSSEELNYRIHLKGLTGTAGKISSISQPGNDFSTKDGDNDKCICKCSQMLTGGWWFDACGPSNLNGMYYPQRQNTNKFNGIKWYYWKGSGYSLKATTMMIRPADF | 478 ± 480 | 608 ± 420 |  | 156 ± 32 | 136 ± 68 |  |  |  | 634 ± 560 | 119 ± 47 |  |  |  |  |
| SPP1 | 273 ± 240 | 299 ± 230 |  | 137 ± 79 | 126 ± 70 |  |  |  | 380 ± 410 | 136 ± 71 |  |  |  |  |

Already shown: an excerpt of the list.

| Substance | number [1, 3] | number [1, 4] | number [1, 5] | number [2, 3] | number [2, 4] | number [2, 5] | number [1, 6] | number [2, 6] | number [1, 7] | number [2, 7] | number [1, 8] | number [2, 8] | number [1, 9] | number [2, 9] |
| --- | --- | --- | --- | --- | --- | --- | --- | --- | --- | --- | --- | --- | --- | --- |
| MWQIVFFTLSCDLVLAAAYNNFRKSMDSIGKKQYQVQHGSCSYTFLLPEMDNCRSSSSPYVSNAVQRDAPLEYDDSVQRLQVLENIMENNTQWLMKLENYIQDNMKKEMVEIQQNAVQNQTAVMIEIGTNLLNQTAEQTRKLTDVEAQVLNQTTRLELQLLEHSLSTNKLEKQILDQTSEINKLQDKNSFLEKKVLAMEDKHIIQLQSIKEEKDQLQVLVSKQNSIIEELEKKIVTATVNNSVLQKQQHDLMETVNNLLTMMSTSNSAKDPTVAKEEQISFRDCAEVFKSGHTTNGIYTLTFPNSTEEIKAYCDMEAGGGGWTIIQRREDGSVDFQRTWKEYKVGFGNPSGEYWLGNEFVSQLTNQQRYVLKIHLKDWEGNEAYSLYEHFYLSSEELNYRIHLKGLTGTAGKISSISQPGNDFSTKDGDNDKCICKCSQMLTGGWWFDACGPSNLNGMYYPQRQNTNKFNGIKWYYWKGSGYSLKATTMMIRPADF | 478 ± 480 | 608 ± 420 |  | 156 ± 32 | 136 ± 68 |  |  |  | 634 ± 560 | 119 ± 47 |  |  |  |  |
| SPP1 | 273 ± 240 | 299 ± 230 |  | 137 ± 79 | 126 ± 70 |  |  |  | 380 ± 410 | 136 ± 71 |  |  |  |  |
